The results in this text go back to the supplement of paper PMC12009310.

The structures appear in SMILES notation. Structures can show the parent of a compound that is named as a salt. ± gives the standard deviation of the averaged measurements. The list shows a part of the results. Part of the spread comes from offsets between plates or batches.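 Cells from a mouse kidney inner medullary collecting duct line received siRNA against the ciliary gene Rpgrip1l or a non-targeting control. Primary scores are two-run means relative to batch controls. Follow-up hits increased cilia by 2 or more over their matched control; compounds reducing cell number by at least 2 were dropped. The cells are a mouse kidney inner medullary collecting duct line, silenced either for the ciliary gene Rpgrip1l or with a non-targeting control siRNA.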

For the first experiment, the system named is mIMCD3. Nature of the experiment: robust z cell number difference from vehicle control (robust z score difference); higher = more cells. The note with it: 10 µM; 48 h; siRNA: siScr.
Regarding `CC(=N)NCc1cccc(CN)c1` [1400W dihydrochloride], the “robust z cell number difference” value stood at 1.38 ± 1.6. As for `O=C(O)/C=C/c1ccc(Cn2ccnc2)cc1` [Ozagrel hydrochloride], the “robust z cell number difference” value was 0.0086 ± 2.5. On the same count and under the same terms, for `CC(=O)N[C@@H](Cc1c[nH]c2ccccc12)C(=O)OCc1cc(C(F)(F)F)cc(C(F)(F)F)c1` the value was -0.193 ± 2.9; for `CO[C@@H]1[C@H](O)[C@@H](CO)O[C@H]1n1cnc2c(NC3CCCCC3)ncnc21`, -6.38 ± 7.8; for `N#Cc1c(O)c2c(-c3ccc(-c4ccccc4O)cc3)csc2[nH]c1=O`, -3.04 ± 4.3. Same read-out and setting: for `N[C@@H](CSC(c1ccccc1)(c1ccccc1)c1ccccc1)C(=O)O` [S-Trityl-L-cysteine] the value was -1.79 ± 4.2. Turning to `CC[N+](C)(CC)CC(=O)Nc1c(C)cccc1C` [N-Methyllidocaine iodide], the “robust z cell number difference” value was 0.478 ± 3.1.

The test system of the next experiment is mIMCD3. Nature of the experiment: robust z score of cilia incidence (% cells with single cilium) vs plate controls; higher = more ciliated cells. As to conditions: 10 µM; 48 h; siRNA: siScr.
As to `COC(=O)[C@H](NC(=O)c1cc(-c2ccccc2)nc2ccccc12)c1ccccc1`, the “robust z score of cilia incidence” value turned out to be 5.95 ± 1.4. The same measure, in the same setting: the result for `CCN1CCC[C@H]1CNC(=O)c1cc(S(N)(=O)=O)ccc1OC` [(S)-(-)-Sulpiride] reads 0.267 ± 0.3; that for `CC(=N)NCc1cccc(CN)c1` [1400W dihydrochloride], -1.73 ± 1.1.

For `O=C(O)/C=C/c1ccc(Cn2ccnc2)cc1` [Ozagrel hydrochloride], the “robust z score of cilia incidence” value came out at 1.57 ± 0.21. The same measure, in the same setting: for `CN(C)CCCSc1ccccc1NC(=O)/C=C/c1ccccc1` [Cinanserin hydrochloride] the value was -15 ± 4; for `c1ccc(N2CCN(CCCOc3ccc4c(c3)OCO4)CC2)cc1` [BP 554 maleate], 0.387 ± 0.5. Still for that read-out and setting: for `OC(c1ccccc1)C1CCN(CCc2ccccc2)CC1` (stereo unspecified) the value was -20.4 ± 1.6; for `COCCOC(=O)C1=C(C)NC(C)=C(C(=O)OC(C)C)C1c1cccc([N+](=O)[O-])c1` (stereo unspecified) [Nimodipine], 1.09 ± 0.52; for `CC(=O)N[C@@H](Cc1c[nH]c2ccccc12)C(=O)OCc1cc(C(F)(F)F)cc(C(F)(F)F)c1`, 0.107 ± 2.2. As to `CCc1c2c(nc3ccc(O)cc13)-c1cc3c(c(=O)n1C2)COC(=O)[C@]3(O)CC`, the “robust z score of cilia incidence” value is -25 ± 15. Take `COCCCC/C(=N\OCCN)c1ccc(C(F)(F)F)cc1` [Fluvoxamine maleate]: the “robust z score of cilia incidence” value was -1.48 ± 0.87. Same read-out and setting: the result for `Cn1cc(C2=C(c3ccc(Cl)cc3Cl)C(=O)NC2=O)c2ccccc21` reads 0.389 ± 1.6. Still for that read-out and setting: the result for `Oc1cc2c(cc1O)CN(C(=S)NCCc1ccc(Cl)cc1)CCC2` [Capsazepine] reads -40.5 ± 8.3. Regarding `NS(=O)(=O)c1cccc2c1c([N+](=O)[O-])cc1nc(O)c(O)nc12`, the “robust z score of cilia incidence” value was 0.853 ± 2.1. On the same count and under the same terms, the result for `Clc1ccccc1CNCC1CCC(CNCc2ccccc2Cl)CC1` (stereo unspecified) reads -47.6 ± 13; that for `CO[C@@H]1[C@H](O)[C@@H](CO)O[C@H]1n1cnc2c(NC3CCCCC3)ncnc21`, 2.13 ± 0.12; that for `OCc1cc(C(O)CNCCCCCCOCCCCc2ccccc2)ccc1O` (stereo unspecified) [Salmeterol], -11.8 ± 5.3. Regarding `COC(=O)Nc1ccc2[nH]cc(CCNC(C)=O)c2c1`, the “robust z score of cilia incidence” value is -3.09 ± 5.3.

For the compound `COC(=O)C[C@](O)(CCCC(C)(C)O)C(=O)O[C@@H]1C(OC)=C[C@]23CCCN2CCc2cc4c(cc2[C@H]13)OCO4` [Homoharringtonine], the “robust z score of cilia incidence” value is -78.5 ± 25. On to `CCCOc1ccccc1-c1nc2[nH]nnc2c(=O)[nH]1` [Zaprinast], for which the “robust z score of cilia incidence” value is -4.65 ± 1.1. Still for that read-out and setting: for `CCCCCS(=O)(=O)CCCCCCCCCCn1c(-c2ccc(O)cc2)c(C)c2cc(O)ccc21` the value was -33.6 ± 15; for `O=c1c(O)c(-c2ccc(O)cc2)oc2cc(O)cc(O)c12` [Kaempferol], -0.789 ± 0.11; for `COc1cc(NC(=O)c2ccccn2)ccc1Cl`, 5.48 ± 1.4. Same read-out and setting: for `CCCCC[C@H](O)/C=C/[C@H]1[C@H](O)CC(=O)[C@@H]1C/C=C\CCCC(=O)O` [Prostaglandin E2] the value was -1.2 ± 0.25. Turning to `N#Cc1c(O)c2c(-c3ccc(-c4ccccc4O)cc3)csc2[nH]c1=O`, the “robust z score of cilia incidence” value is 1.5 ± 0.09. On the same count and under the same terms, for `O=C(/C=C/c1c(C(=O)O)[nH]c2cc(Cl)cc(Cl)c12)Nc1ccccc1` [Gavestinel] the value was -1.74 ± 1.4; for `C1CCC2(CC1)CCNCC2` [4,4-Pentamethylenepiperidine hydrochloride], -15.7 ± 21; for `CC(C)[C@H](CO)Nc1nc(Nc2ccc(C(=O)O)c(Cl)c2)c2ncn(C(C)C)c2n1` [Purvalanol B], -6.26 ± 4.4.

For `Cn1cnnc1Sc1c([N+](=O)[O-])ncn1C`, the “robust z score of cilia incidence” value was -2.77 ± 2.5. For the compound `CN(C)c1nc(N)c(C(=O)Nc2cccnc2)nc1Cl` [ACDPP hydrochloride], the “robust z score of cilia incidence” value was -2.1 ± 0.88.

In the case of `c1ccc(C(NCc2cccnc2)(c2ccccc2)c2ccccc2)cc1`, the “robust z score of cilia incidence” value is -67.1 ± 18. The same measure, in the same setting: the result for `Nc1ccc(-c2cccc3c(=O)cc(N4CCOCC4)oc23)cc1` reads -7.07 ± 1.3; that for `N[C@@H](CSC(c1ccccc1)(c1ccccc1)c1ccccc1)C(=O)O` [S-Trityl-L-cysteine], 3.43 ± 2.2. As to `CC(C)[C@H](CO)Nc1nc(Nc2cc(N)cc(Cl)c2)c2ncn(C(C)C)c2n1` [Aminopurvalanol A], the “robust z score of cilia incidence” value was -20 ± 7.8. The same measure, in the same setting: for `N[C@H](C(=O)O)[C@H](OCc1ccccc1)C(=O)O` (racemic) the value was -1.63 ± 0.36; for `CC[N+](C)(CC)CC(=O)Nc1c(C)cccc1C` [N-Methyllidocaine iodide], -2.02 ± 2.1; for `COc1cc(-c2ccc(=O)[nH]n2)ccc1OC(F)F` [Zardaverine], 1.21 ± 2.3. Same read-out and setting: for `CCCC1O[C@@H]2C[C@H]3[C@@H]4CCC5=CC(=O)C=C[C@]5(C)[C@H]4[C@@H](O)C[C@]3(C)[C@]2(C(=O)CO)O1` (stereo partly specified) [Budesonide] the value was -21.2 ± 11. For the compound `O=C(Nc1ccc([N+](=O)[O-])cc1O)Nc1ccccc1Br`, the “robust z score of cilia incidence” value was -20.3 ± 8.2.
